These are yes or no findings as the source states them, for the method shown. Binding seen in cells or lysates may run through a third protein. Binding can be weak; no strength is given. Sequences can lack the tags named with a protein.
Molecular target: T1, Irr1-GFP (full-length) (S. cerevisiae) (UniProt P40541)
T1 sequence: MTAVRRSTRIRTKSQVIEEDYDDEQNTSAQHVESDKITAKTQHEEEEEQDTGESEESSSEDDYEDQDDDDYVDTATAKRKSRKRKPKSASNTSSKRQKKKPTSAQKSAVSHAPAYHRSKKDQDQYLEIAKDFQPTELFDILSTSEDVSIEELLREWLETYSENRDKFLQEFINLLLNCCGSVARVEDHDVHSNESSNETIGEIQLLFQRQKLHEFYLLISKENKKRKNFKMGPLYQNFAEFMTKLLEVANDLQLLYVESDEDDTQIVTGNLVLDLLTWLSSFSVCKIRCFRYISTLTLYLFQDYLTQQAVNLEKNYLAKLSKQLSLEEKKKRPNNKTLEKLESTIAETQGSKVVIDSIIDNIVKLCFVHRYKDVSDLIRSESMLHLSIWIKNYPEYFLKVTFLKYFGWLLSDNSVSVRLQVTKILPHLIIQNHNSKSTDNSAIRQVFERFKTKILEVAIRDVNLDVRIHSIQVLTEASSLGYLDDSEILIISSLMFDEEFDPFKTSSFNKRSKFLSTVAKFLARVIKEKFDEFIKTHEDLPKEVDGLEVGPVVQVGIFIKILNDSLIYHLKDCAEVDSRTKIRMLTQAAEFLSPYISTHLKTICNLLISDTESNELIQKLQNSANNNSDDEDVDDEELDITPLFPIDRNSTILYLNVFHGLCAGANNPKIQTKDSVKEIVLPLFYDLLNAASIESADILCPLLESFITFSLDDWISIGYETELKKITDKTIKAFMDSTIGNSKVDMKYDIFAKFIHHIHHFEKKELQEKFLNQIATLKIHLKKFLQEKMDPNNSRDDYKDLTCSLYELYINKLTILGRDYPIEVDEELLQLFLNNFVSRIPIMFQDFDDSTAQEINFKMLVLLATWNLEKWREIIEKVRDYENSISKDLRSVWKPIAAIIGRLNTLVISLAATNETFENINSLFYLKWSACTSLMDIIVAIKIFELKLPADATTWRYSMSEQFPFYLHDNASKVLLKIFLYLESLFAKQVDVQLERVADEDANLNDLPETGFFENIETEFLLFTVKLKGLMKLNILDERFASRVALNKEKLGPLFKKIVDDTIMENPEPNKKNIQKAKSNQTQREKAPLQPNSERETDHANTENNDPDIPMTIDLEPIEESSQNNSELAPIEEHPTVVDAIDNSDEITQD
Experiment: co-IP; lysate of cells nitrogen-starved 22 h in SD-N; anti-GFP or anti-RFP magnetic beads, 4 °C, 2 h; 50 mM Tris-HCl pH 7.5, 50 mM NaCl, 0.2% Triton X-100; Western blot with anti-RFP or anti-GFP

For Imi1-RFP (full-length) (S. cerevisiae), the binding was “binds”.

Source: paper PMC5223379
